# Assay results: the supplement of paper PMC6411743
# The chains behind the UniProt entries cited, without tags or fusion partners. Where a name states a change or a piece, a line headed by the entry shows the natural chain unless it says otherwise.
# UniProt Q86WR0: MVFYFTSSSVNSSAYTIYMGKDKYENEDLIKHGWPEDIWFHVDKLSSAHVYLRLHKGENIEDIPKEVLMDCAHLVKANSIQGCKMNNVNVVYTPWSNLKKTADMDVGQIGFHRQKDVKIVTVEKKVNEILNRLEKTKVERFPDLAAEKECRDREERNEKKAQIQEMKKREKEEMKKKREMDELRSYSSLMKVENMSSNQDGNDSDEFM
# UniProt Q8IYW5, whole entry: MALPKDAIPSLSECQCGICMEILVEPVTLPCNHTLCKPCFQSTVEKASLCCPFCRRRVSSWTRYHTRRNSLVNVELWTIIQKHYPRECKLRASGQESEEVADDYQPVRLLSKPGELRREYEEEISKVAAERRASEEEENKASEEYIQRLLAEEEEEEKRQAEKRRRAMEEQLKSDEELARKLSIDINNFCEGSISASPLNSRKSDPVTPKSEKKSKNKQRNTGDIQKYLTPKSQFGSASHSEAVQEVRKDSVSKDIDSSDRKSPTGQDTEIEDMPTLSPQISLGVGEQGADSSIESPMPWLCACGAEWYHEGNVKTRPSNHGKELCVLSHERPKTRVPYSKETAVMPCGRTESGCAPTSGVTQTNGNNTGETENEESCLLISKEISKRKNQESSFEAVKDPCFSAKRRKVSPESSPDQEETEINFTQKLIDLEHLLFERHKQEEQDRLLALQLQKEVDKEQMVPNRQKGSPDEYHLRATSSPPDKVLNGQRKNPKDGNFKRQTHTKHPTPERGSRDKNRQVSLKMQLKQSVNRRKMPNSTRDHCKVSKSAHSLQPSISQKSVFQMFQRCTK
# UniProt Q86VY4: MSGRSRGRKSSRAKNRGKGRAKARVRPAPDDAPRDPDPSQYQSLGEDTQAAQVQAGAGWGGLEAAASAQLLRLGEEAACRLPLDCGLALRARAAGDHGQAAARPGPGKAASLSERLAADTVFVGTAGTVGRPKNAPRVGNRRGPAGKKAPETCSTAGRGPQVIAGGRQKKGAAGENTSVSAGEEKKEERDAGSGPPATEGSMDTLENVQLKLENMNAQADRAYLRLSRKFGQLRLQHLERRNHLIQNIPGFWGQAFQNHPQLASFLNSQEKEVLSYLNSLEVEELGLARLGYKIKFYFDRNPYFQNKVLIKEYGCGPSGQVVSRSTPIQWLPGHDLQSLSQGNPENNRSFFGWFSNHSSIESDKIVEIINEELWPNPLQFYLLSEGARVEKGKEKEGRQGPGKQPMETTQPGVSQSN
# UniProt Q8NB16: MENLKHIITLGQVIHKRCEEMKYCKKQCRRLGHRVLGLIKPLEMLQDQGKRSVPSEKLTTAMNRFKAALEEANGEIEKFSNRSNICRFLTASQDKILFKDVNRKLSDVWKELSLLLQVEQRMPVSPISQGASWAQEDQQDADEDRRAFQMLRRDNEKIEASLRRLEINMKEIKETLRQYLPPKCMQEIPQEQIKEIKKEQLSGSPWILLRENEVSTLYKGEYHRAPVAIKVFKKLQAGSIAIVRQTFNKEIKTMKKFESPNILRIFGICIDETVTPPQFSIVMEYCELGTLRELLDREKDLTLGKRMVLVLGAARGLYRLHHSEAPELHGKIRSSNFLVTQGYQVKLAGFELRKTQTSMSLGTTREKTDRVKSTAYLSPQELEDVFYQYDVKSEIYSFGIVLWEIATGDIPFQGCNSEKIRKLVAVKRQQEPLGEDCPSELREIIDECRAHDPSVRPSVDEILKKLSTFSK
# UniProt Q86TI0: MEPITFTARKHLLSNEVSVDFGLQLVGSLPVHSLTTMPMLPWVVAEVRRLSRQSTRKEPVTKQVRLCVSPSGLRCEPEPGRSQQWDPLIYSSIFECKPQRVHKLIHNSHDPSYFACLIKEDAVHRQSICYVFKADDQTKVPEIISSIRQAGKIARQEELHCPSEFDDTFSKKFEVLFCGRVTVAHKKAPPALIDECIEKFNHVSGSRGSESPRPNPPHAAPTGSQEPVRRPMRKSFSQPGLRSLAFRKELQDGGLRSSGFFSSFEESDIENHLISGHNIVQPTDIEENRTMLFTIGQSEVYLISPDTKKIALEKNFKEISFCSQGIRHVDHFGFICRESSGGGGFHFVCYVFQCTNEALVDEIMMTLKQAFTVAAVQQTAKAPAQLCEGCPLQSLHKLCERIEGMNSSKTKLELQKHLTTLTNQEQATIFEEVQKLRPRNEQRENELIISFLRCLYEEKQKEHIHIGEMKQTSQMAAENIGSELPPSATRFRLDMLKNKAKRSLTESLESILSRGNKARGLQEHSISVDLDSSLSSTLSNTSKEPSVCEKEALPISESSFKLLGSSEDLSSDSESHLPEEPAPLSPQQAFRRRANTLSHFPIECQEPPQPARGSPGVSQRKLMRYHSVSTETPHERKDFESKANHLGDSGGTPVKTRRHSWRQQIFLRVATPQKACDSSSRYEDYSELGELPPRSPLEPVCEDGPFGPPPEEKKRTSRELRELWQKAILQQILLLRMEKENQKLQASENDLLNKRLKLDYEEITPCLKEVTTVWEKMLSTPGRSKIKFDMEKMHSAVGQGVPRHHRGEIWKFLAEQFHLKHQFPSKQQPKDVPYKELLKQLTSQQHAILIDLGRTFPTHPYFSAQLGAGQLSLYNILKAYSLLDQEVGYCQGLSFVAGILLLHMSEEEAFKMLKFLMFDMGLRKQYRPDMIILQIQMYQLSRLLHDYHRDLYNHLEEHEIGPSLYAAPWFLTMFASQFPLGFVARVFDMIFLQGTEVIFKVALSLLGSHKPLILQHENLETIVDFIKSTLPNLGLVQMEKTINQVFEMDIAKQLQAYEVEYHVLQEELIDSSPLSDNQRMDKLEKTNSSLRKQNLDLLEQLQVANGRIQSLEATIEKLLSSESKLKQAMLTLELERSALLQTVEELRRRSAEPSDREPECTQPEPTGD
# UniProt Q8N5G2: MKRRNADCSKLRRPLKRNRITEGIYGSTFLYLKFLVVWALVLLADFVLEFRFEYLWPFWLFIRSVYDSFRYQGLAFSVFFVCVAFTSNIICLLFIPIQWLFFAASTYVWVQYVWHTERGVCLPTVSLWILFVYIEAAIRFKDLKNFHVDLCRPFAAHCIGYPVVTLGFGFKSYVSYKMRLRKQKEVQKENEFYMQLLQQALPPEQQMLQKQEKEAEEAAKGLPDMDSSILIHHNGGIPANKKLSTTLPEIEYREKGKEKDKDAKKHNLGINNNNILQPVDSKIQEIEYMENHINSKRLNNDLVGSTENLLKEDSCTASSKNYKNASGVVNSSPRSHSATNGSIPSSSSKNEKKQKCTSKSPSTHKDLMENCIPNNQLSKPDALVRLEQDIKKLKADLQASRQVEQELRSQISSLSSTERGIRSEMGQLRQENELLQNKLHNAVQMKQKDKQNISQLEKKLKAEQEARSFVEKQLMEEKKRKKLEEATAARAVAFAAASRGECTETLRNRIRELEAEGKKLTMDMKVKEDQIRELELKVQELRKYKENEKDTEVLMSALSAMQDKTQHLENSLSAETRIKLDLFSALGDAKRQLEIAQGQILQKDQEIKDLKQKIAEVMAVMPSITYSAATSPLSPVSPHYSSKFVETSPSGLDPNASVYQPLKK
# UniProt Q8N1G4: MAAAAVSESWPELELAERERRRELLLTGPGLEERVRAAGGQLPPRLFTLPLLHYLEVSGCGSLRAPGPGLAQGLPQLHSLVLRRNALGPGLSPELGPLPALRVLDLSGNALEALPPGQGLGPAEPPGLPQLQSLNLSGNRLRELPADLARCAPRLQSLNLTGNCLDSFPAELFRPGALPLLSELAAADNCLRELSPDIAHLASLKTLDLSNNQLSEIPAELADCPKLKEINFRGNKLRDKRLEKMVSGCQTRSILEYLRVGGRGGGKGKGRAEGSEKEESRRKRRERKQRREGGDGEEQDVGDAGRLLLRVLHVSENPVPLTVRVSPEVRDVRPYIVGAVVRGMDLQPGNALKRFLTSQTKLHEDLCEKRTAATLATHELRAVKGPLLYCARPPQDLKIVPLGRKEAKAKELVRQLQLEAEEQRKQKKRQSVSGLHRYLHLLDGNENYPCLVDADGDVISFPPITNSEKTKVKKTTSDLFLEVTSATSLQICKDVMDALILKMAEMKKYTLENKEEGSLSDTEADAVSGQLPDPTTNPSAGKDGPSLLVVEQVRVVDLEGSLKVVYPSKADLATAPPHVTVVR
# UniProt Q8IWZ8: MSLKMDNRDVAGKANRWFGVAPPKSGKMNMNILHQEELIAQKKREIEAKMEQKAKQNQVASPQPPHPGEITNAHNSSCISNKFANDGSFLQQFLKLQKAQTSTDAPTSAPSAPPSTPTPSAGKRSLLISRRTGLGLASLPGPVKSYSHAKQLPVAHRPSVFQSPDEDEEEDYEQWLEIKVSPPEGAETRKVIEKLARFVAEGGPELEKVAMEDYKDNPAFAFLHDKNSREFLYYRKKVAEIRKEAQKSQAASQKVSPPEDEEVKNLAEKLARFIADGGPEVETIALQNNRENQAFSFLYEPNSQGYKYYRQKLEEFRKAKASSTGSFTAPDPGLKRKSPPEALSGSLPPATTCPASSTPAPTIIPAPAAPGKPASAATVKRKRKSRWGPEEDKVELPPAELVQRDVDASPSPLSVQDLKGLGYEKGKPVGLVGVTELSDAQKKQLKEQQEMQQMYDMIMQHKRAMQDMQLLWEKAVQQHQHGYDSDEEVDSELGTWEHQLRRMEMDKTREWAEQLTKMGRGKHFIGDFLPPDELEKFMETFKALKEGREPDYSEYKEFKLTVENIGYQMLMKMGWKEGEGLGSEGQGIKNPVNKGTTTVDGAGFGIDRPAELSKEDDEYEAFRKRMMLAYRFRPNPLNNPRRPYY
# UniProt Q8IWT6: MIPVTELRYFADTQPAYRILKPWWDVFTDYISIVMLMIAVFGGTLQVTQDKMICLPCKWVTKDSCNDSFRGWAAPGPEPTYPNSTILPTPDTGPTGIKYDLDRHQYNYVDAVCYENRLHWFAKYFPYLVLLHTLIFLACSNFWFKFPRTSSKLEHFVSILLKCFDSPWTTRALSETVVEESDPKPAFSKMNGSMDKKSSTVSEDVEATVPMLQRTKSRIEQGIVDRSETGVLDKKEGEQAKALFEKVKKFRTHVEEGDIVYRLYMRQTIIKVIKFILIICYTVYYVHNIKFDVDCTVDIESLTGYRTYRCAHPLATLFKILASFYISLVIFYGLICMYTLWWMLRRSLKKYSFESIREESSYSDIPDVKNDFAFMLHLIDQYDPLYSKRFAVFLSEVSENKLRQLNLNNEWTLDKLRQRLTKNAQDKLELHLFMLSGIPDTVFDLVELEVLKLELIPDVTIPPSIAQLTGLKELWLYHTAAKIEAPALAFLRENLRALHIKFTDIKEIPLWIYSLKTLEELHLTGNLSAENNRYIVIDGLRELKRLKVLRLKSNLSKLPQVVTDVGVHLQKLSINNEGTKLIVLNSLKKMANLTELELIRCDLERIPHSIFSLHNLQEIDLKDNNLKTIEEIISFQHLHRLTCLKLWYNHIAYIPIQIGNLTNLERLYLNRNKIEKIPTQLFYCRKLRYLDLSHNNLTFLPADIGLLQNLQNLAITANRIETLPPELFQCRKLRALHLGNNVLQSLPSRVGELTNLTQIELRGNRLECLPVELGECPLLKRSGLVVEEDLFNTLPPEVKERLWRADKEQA
# UniProt Q8IYH5: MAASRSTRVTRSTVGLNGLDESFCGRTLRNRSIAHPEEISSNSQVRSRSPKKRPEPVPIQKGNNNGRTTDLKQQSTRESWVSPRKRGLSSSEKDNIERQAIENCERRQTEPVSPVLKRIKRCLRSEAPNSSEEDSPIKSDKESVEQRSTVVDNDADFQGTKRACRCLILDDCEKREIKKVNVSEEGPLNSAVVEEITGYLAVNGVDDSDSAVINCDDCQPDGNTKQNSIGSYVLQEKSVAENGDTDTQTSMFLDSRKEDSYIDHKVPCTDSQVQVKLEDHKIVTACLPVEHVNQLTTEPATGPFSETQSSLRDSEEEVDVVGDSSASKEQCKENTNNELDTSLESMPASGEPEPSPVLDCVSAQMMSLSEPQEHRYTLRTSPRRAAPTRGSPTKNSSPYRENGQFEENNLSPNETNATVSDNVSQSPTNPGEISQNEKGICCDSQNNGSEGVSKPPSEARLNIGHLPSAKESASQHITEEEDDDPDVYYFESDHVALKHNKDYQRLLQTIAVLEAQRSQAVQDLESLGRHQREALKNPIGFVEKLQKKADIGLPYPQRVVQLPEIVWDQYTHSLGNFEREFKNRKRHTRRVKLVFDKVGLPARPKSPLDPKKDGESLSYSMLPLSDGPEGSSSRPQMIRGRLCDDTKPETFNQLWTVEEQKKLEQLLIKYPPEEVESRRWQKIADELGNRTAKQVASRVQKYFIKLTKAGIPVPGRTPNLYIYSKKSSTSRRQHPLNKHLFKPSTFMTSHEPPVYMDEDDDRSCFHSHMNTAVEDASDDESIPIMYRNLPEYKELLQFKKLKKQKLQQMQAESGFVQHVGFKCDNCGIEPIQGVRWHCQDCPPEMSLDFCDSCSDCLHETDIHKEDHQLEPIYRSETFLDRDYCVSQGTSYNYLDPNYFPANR
# ± gives the standard deviation of the averaged measurements. The list shows a part of the results, in another mix than the full data.
# Compound: Nc1ncnc2c1ncn2[C@@H]1O[C@H](COP(=O)(O)OP(=O)(O)NP(=O)(O)O)[C@@H](O)[C@H]1O [adenylyl imidodiphosphate]
# Assay: NP40-soluble protein abundance relative to vehicle (solubility fold change) (ratio); higher = more soluble protein in presence of AMP-PNP
# Summary of the method: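 Data come from three independent experiments in which Dounce-homogenised Jurkat crude lysate was treated at eight concentrations from 0.1 to 10 mM. Treatment ran 10 min at room temperature and then 3 min at 37 °C, after which 0.8% NP40 and benzonase were added for 60 min at 4 °C before ultracentrifugation. The supernatant underwent TMT labelling and LC-MS/MS, and vsn-normalised intensities were expressed as fold change against the detergent-processed vehicle in each replicate.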
Target,NP40-soluble protein abundance (concentration: 1mM),NP40-soluble protein abundance (concentration: 2mM),NP40-soluble protein abundance (concentration: 4mM),NP40-soluble protein abundance (concentration: 6mM),NP40-soluble protein abundance (concentration: 8mM),NP40-soluble protein abundance (concentration: 10mM)
UBR7 (UniProt Q8N806),1.005 ± 0.0053,1 ± 0.015,0.995 ± 0.026,0.997 ± 0.037,1 ± 0.037,0.985 ± 0.041
UniProt Q86V59 and related entries,1.02 ± 0.032,1.04 ± 0.025,1.06 ± 0.017,1.03 ± 0.0049,1.07 ± 0.029,1.05 ± 0.033
CCDC25 (UniProt Q86WR0),1.02 ± 0.035,1.01 ± 0.021,0.9961 ± 0.0019,1.02 ± 0.019,1.03 ± 0.019,1.03 ± 0.039
UniProt Q8N7H5 and related entries,1.01 ± 0.021,1.04 ± 0.031,1.01 ± 0.012,1.01 ± 0.037,0.986 ± 0.025,1.02 ± 0.023
UniProt Q86UU1 and related entries,1.01 ± 0.025,0.992 ± 0.042,0.971 ± 0.018,0.998 ± 0.034,0.996 ± 0.049,0.973 ± 0.035
RCOR2 (UniProt Q8IZ40),0.965 ± 0.072,1.01 ± 0.081,1 ± 0.071,1.01 ± 0.046,1.02 ± 0.052,1.06 ± 0.021
USP48 (UniProt Q86UV5),1.01 ± 0.029,0.966 ± 0.047,0.984 ± 0.024,0.965 ± 0.029,0.972 ± 0.049,0.958 ± 0.048
RNF168 (UniProt Q8IYW5),1.01 ± 0.015,1.04 ± 0.023,1.04 ± 0.067,0.999 ± 0.036,0.989 ± 0.053,1.01 ± 0.018
UniProt Q8N5C7 and related entries,1.02 ± 0.034,0.994 ± 0.049,0.994 ± 0.033,0.978 ± 0.066,0.995 ± 0.06,0.978 ± 0.068
UniProt Q8IWV8 and related entries,0.974 ± 0.012,0.948 ± 0.078,1.01 ± 0.037,0.971 ± 0.013,0.975 ± 0.029,0.923 ± 0.035
GALNT12 (UniProt Q8IXK2),0.994 ± 0.021,0.941 ± 0.1,1.03 ± 0.049,0.9517 ± 0.0095,0.985 ± 0.018,0.977 ± 0.032
UniProt Q8N6M0 and related entries,1.04 ± 0.012,1.07 ± 0.027,1.07 ± 0.019,1.07 ± 0.013,1.08 ± 0.024,1.07 ± 0.045
ARHGAP30 (UniProt Q7Z6I6),1.03 ± 0.016,1.03 ± 0.04,1.02 ± 0.019,1 ± 0.029,0.9876 ± 0.0094,0.997 ± 0.015
UniProt Q8IZ81 and related entries,0.945 ± 0.039,0.929 ± 0.035,0.929 ± 0.051,0.932 ± 0.049,0.933 ± 0.046,0.9465 ± 0.0094
TSPYL5 (UniProt Q86VY4),1.06 ± 0.032,1.09 ± 0.09,1.06 ± 0.06,1.08 ± 0.041,1.09 ± 0.028,1.12 ± 0.054
UniProt Q86UY8 and related entries,0.99 ± 0.031,0.97 ± 0.065,0.976 ± 0.045,0.958 ± 0.035,1.01 ± 0.028,0.972 ± 0.04
UniProt Q8N5M4 and related entries,0.932 ± 0.054,0.94 ± 0.03,0.91 ± 0.032,0.984 ± 0.064,0.961 ± 0.055,0.938 ± 0.071
UniProt Q8IYS2 and related entries,0.998 ± 0.019,0.9791 ± 0.0085,0.999 ± 0.034,0.97 ± 0.033,0.97 ± 0.012,0.989 ± 0.036
MLKL (UniProt Q8NB16),1.021 ± 0.0029,1.009 ± 0.0058,1.02 ± 0.011,1.01 ± 0.022,1.01 ± 0.019,1.01 ± 0.015
KRI1 (UniProt Q8N9T8),1.04 ± 0.013,1.09 ± 0.053,1.038 ± 0.0084,1.02 ± 0.026,1.021 ± 0.0046,1.04 ± 0.014
UniProt Q86TI0 and related entries,1.06 ± 0.022,1.04 ± 0.032,1.05 ± 0.056,0.989 ± 0.029,1.01 ± 0.076,1 ± 0.062
UniProt Q8N5G2,1.02 ± 0.053,1.03 ± 0.081,1.01 ± 0.075,1.02 ± 0.046,1.03 ± 0.077,1.02 ± 0.14
LRRC47 (UniProt Q8N1G4),1 ± 0.025,1.01 ± 0.021,1.03 ± 0.021,1.06 ± 0.03,1.08 ± 0.034,1.1 ± 0.06
UniProt Q8N5M1 and related entries,0.957 ± 0.018,0.897 ± 0.097,0.939 ± 0.044,0.943 ± 0.013,0.959 ± 0.013,0.9 ± 0.023
SMYD4 (UniProt Q8IYR2),0.987 ± 0.032,1.01 ± 0.031,0.989 ± 0.031,0.95 ± 0.032,0.943 ± 0.015,0.957 ± 0.026
UniProt Q8IWZ8,1 ± 0.033,1.04 ± 0.098,1 ± 0.087,0.999 ± 0.025,1 ± 0.04,1.03 ± 0.036
TMEM173 (UniProt Q86WV6),1.02 ± 0.049,1.02 ± 0.049,0.986 ± 0.073,0.9747 ± 0.0089,0.964 ± 0.037,0.962 ± 0.064
LRRC8A (UniProt Q8IWT6),0.983 ± 0.016,0.997 ± 0.032,0.983 ± 0.023,0.996 ± 0.017,0.99 ± 0.019,0.974 ± 0.019
UniProt Q8IYH5 and related entries,0.966 ± 0.043,0.981 ± 0.03,0.968 ± 0.05,0.994 ± 0.023,0.942 ± 0.044,0.966 ± 0.013
UniProt Q8N1G2,0.976 ± 0.03,0.94 ± 0.054,0.964 ± 0.019,0.9538 ± 0.0066,1.01 ± 0.026,0.9463 ± 0.0023

# Complete entries as entered above. Order of values: NP40-soluble protein abundance (concentration: 1mM) | NP40-soluble protein abundance (concentration: 2mM) | NP40-soluble protein abundance (concentration: 4mM) | NP40-soluble protein abundance (concentration: 6mM) | NP40-soluble protein abundance (concentration: 8mM) | NP40-soluble protein abundance (concentration: 10mM)
# LRRC47 (UniProt Q8N1G4) as listed: 1 ± 0.025 | 1.01 ± 0.021 | 1.03 ± 0.021 | 1.06 ± 0.03 | 1.08 ± 0.034 | 1.1 ± 0.06
# UBR7 (UniProt Q8N806) as listed: 1.005 ± 0.0053 | 1 ± 0.015 | 0.995 ± 0.026 | 0.997 ± 0.037 | 1 ± 0.037 | 0.985 ± 0.041
